The results in this text go back to publication doi:10.1101/2021.08.04.454762.

Chains of the proteins cited; added tags and fusions are not shown.
UniProt Q15554: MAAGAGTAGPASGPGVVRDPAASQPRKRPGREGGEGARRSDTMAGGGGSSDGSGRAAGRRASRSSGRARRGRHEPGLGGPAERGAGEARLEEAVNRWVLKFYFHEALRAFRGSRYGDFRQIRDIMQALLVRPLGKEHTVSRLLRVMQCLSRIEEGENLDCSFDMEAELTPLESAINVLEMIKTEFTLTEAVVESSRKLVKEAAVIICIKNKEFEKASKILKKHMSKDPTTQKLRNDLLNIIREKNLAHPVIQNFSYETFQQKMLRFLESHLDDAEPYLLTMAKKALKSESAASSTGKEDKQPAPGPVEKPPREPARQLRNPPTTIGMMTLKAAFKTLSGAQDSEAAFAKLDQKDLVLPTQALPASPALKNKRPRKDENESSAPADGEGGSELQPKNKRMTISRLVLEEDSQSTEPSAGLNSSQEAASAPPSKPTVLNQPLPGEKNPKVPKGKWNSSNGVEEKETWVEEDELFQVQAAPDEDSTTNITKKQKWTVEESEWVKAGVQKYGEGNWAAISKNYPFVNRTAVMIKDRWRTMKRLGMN
UniProt P54274: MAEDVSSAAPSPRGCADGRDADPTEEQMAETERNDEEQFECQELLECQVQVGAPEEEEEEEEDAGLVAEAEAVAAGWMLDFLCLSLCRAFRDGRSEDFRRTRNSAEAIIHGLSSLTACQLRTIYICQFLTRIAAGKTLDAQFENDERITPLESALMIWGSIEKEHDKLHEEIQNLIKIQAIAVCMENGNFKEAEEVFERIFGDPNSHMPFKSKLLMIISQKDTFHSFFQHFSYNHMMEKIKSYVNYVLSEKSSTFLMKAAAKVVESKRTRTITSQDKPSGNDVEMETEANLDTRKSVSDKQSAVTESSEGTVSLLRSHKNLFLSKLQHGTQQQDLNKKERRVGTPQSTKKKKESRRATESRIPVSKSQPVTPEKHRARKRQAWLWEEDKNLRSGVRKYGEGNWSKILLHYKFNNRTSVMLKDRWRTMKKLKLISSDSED
UniProt O43524: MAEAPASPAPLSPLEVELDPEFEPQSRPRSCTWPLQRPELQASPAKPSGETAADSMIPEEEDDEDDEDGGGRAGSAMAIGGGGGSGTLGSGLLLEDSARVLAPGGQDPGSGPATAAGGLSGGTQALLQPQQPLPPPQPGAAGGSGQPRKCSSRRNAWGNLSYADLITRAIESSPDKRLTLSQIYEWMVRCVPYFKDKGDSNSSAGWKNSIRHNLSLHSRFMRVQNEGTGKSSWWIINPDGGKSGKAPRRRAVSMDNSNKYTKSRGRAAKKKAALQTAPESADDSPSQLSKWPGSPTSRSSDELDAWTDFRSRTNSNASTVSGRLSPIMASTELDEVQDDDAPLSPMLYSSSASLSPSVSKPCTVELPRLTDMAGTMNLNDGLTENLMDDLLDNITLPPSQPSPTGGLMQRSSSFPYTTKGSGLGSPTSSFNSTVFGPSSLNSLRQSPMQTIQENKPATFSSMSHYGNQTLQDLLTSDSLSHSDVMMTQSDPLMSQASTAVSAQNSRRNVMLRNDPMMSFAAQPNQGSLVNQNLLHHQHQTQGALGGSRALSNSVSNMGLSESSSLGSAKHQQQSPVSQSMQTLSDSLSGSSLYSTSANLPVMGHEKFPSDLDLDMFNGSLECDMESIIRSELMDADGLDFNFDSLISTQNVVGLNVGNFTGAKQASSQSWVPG

In assay [1] the target is telomeric repeat binding factor 2 (TRF2) (human (endogenous in skeletal muscle biopsies and BJ-HELT fibroblasts)) (UniProt Q15554). Put plainly: proximity ligation.
Assay [2] has as its target TRF1 (human (endogenous in myotubes)) (UniProt P54274). Put plainly: proximity ligation.
For assay [3], the target named is telomeric repeat binding factor 2 (TRF2) (human (endogenous in skeletal muscle biopsies and BJ-HELT fibroblasts)) (UniProt Q15554). Briefly: co-IP.

Results are given in words; binding and its absence hold for the method and conditions named. Binding seen in cells or lysates may run through a third protein. Some results given as binding are weak or reduced against the parent protein; the word gives no strength.

Regarding FOXO3a (from UniProt O43524 1-673), the binding result in assay [1], in assay [2] and in assay [3] was “binds” each time.
In the case of “full-length FOXO3a (pWPIR-FOXO3aWT-GFP) (from UniProt O43524 1-673)”, the binding entry in assay [1] is recorded as “binds”.
